This note sets out measurements from the supplement of paper PMC10849652.

The chains behind the UniProt entries cited, without tags or fusion partners. Where a name states a change or a piece, a line headed by the entry shows the natural chain unless it says otherwise.
UniProt Q96GM5, whole entry, looked up: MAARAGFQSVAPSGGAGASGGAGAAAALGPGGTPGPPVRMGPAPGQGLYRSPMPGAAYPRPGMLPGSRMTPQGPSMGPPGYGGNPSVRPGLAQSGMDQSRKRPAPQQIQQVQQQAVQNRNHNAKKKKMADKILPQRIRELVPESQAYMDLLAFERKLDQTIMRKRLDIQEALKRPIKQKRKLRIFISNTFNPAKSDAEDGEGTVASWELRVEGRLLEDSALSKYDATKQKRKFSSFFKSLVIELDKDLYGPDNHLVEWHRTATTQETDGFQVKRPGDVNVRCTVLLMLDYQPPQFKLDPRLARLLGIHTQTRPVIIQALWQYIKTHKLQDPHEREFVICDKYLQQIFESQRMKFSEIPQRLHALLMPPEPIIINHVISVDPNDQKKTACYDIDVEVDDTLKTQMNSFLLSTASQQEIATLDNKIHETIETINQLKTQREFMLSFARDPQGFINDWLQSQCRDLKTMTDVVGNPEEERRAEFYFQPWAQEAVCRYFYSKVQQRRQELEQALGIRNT
UniProt Q53HV7: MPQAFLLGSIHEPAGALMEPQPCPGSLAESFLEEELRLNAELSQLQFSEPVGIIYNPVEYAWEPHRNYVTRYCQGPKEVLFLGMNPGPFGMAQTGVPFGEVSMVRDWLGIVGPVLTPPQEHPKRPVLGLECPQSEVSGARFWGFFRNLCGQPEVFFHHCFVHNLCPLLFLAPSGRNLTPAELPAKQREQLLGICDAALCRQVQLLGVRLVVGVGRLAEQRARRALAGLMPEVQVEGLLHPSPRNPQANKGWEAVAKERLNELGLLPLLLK
UniProt P52788: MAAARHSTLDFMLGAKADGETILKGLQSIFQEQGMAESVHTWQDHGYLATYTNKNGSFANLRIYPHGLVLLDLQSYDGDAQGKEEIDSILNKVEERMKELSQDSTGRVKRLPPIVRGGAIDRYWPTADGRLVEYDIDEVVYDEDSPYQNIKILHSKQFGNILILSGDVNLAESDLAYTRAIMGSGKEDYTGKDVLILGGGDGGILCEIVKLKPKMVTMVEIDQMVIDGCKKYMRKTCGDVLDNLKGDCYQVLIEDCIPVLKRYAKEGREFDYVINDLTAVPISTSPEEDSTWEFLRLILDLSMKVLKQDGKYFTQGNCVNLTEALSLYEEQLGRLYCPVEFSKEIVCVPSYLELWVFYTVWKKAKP
UniProt P09661: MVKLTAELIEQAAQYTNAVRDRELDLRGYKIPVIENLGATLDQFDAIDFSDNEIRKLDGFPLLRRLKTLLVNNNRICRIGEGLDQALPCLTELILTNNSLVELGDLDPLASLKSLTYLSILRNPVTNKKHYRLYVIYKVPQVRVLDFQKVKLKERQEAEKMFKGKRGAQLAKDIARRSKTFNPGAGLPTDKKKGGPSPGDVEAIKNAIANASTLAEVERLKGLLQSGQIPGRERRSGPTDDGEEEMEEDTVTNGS
UniProt Q96EX1: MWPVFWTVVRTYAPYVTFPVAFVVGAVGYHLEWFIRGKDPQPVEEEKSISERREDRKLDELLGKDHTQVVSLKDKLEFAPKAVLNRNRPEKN
UniProt Q96H20: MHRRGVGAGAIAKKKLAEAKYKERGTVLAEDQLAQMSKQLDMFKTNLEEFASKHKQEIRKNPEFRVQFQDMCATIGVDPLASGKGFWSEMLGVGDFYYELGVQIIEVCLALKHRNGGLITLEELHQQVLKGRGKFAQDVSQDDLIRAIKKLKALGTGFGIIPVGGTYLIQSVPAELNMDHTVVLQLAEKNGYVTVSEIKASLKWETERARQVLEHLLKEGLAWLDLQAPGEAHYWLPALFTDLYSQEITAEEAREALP
UniProt O60271: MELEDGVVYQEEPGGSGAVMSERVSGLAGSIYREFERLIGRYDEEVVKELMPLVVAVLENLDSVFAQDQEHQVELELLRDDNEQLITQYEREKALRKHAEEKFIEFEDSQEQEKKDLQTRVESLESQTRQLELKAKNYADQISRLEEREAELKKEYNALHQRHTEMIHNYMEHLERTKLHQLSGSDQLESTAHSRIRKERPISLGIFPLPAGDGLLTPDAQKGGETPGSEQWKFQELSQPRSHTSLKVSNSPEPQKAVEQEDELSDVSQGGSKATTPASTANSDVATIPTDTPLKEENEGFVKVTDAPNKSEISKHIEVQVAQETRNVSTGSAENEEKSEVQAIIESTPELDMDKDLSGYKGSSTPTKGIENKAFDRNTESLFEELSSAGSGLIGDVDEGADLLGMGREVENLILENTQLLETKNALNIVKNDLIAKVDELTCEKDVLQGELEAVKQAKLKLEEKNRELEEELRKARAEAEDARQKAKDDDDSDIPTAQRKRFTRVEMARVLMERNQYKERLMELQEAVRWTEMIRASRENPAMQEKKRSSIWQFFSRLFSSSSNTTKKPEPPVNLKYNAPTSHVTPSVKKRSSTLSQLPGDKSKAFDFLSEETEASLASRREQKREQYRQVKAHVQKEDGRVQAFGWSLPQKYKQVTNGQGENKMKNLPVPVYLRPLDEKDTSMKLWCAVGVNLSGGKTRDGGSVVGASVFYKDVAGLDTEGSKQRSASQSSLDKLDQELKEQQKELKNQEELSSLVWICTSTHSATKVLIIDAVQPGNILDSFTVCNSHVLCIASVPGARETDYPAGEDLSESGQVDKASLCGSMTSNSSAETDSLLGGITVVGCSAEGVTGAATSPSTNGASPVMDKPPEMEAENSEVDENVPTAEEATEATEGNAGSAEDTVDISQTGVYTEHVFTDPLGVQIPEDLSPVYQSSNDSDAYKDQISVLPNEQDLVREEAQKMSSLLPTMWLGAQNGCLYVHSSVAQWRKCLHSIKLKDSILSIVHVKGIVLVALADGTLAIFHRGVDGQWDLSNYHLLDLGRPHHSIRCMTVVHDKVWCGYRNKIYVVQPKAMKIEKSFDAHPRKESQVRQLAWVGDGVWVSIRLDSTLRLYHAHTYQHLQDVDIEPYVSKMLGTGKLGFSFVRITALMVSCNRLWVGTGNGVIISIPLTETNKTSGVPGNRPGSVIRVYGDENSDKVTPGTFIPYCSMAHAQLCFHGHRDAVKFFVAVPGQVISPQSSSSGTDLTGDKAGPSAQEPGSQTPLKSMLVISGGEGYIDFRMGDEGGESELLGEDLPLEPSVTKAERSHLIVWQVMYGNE
UniProt P00441, whole entry, looked up: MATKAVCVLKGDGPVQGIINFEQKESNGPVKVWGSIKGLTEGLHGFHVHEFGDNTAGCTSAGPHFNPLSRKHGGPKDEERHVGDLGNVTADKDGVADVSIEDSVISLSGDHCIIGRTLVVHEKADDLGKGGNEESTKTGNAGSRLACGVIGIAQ
UniProt Q6GMV2: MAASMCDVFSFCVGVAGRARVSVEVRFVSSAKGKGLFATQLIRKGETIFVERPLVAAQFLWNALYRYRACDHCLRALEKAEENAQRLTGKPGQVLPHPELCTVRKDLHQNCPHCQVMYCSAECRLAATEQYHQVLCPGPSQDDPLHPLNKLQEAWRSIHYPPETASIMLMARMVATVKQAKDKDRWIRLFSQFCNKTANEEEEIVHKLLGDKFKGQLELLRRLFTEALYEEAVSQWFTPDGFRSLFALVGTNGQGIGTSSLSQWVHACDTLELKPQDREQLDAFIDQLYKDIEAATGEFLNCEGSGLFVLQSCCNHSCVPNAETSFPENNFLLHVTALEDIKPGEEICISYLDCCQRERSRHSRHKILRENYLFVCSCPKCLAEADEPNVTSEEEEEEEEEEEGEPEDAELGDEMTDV
UniProt P62314, whole entry, looked up: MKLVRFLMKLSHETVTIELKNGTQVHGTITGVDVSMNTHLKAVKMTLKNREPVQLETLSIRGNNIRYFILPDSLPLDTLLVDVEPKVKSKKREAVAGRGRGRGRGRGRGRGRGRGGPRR
UniProt P09012, whole entry, looked up: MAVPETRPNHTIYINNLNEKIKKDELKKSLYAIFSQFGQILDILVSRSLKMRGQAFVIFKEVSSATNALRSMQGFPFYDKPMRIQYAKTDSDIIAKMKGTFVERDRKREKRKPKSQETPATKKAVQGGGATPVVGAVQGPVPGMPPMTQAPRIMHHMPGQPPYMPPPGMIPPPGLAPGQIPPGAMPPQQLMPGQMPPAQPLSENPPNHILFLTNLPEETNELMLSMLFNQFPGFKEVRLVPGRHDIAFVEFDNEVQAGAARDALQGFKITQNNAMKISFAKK
UniProt Q12824, whole entry, looked up: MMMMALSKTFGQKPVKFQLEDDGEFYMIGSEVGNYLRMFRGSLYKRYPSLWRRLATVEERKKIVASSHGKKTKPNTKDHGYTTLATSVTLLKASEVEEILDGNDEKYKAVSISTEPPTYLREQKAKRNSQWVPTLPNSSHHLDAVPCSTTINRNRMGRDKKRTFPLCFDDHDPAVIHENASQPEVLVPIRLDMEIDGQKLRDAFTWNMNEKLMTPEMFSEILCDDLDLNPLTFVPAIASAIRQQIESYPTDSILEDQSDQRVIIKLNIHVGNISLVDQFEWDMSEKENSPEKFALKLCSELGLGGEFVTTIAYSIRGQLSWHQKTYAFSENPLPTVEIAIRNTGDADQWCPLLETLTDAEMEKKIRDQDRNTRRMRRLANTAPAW
UniProt O60749: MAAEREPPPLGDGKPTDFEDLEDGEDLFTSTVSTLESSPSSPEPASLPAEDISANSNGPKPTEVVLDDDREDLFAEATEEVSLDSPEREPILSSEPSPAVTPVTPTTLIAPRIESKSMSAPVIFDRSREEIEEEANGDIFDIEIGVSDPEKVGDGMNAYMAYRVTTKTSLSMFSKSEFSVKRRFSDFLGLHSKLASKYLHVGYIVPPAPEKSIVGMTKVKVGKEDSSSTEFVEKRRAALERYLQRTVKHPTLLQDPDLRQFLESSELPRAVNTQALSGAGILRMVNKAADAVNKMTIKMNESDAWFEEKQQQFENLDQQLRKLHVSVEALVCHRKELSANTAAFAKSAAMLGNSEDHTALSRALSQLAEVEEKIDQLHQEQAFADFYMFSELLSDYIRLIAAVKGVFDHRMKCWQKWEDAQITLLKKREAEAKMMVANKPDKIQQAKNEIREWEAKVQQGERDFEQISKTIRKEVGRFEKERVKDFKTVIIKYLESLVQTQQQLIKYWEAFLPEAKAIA
UniProt P62318, whole entry, looked up: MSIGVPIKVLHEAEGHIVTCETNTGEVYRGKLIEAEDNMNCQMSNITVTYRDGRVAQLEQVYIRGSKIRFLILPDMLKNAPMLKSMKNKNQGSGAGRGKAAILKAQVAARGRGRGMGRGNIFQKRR

The other results are listed elsewhere or left out.

Holding throughout (experiment): log2 fold change, soluble protein after heating vs DMSO (PISA); higher = thermal stabilisation; K562 lysate, 10 uM; active = over 0.2 and 3.5 SD of the protein, either way, in both replicates (recomputed)
Compound in one assay: CCCS(=O)(=O)Nc1ccc(F)c(C(=O)c2c[nH]c3ncc(-c4ccc(Cl)cc4)cc23)c1F [vemurafenib]
The procedure, abridged: (§1)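 Dounce homogenisation of K562 pellets in PBS pH 7.4 with 1 mM MgCl2 produced a crude extract, used at 1 mg/mL protein. Exposure to 10 μM compound lasted 30 min, and aliquots were then heated for 3 min across 48°C-58°C, pooled and brought to 0.5% NP-40 at 4°C. The supernatant after 21,000xg for 90 min was quantified by TMTpro 16plex LC-MS/MS with channel sums equalised. Duplicate values are given as log-two fold change in thermal stability relative to solvent controls.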

Compound in assay [1]: CCCS(=O)(=O)Nc1ccc(F)c(C(=O)c2c[nH]c3ncc(Cl)cc23)c1F
Summed up: as §1

Compound in a further assay: CCN(CCCOc1ccc2c(Nc3cc(CC(=O)Nc4cccc(F)c4)[nH]n3)ncnc2c1)CCOP(=O)(O)O [barasertib]
The procedure, abridged: as §1

Compound in assay [2]: CC[C@@H]1C(=O)N(C)c2cnc(Nc3ccc(C(=O)NC4CCN(C)CC4)cc3OC)nc2N1C1CCCC1
The procedure, abridged: as §1

Compound in a further assay: CC[C@@H]1C(=O)N(C)c2cnc(Nc3ccc(C(=O)N[C@H]4CC[C@H](N5CCN(CC6CC6)CC5)CC4)cc3OC)nc2N1C(C)C [volasertib]
Summed up:
as §1

Compound in assay [3]: CCn1c(C(=O)N(C2CC2)C2CC2)cc2c3c(ncn3C)c(Nc3cc(C)n(C)n3)nc21
The procedure, abridged:
as §1

Compound in assay [4]: CCn1cc(-c2ccnc3[nH]c(-c4cccc(CN(C)C)c4)cc23)c(-c2ccc(NC(=O)N(C)C)cc2)n1
The procedure, abridged:
as §1

Compound in assay [5]: CN1CCC(CNc2ccc3ncc(-c4cccc(OC(F)(F)F)c4)n3n2)CC1
Summed up: as §1

Compound in a further assay: CN1CCN(CCOc2cc(OC3CCOCC3)c3c(Nc4c(Cl)ccc5c4OCO5)ncnc3c2)CC1 [saracatinib]
Summed up:
as §1

Compound in another assay: CN1CCN(c2nc(C3=C(c4c[nH]c5ccccc45)C(=O)NC3=O)c3ccccc3n2)CC1 [sotrastaurin]
The procedure, abridged: as §1

Consider SMARCD1 (UniProt Q96GM5), for which the log2 fold change with vemurafenib was inactive: 0.01; in assay [1] it was inactive: 0.028; with barasertib, inactive: 0.008; in [2], inactive: -0.012; with volasertib it was inactive: -0.01; in assay [3], inactive: 0.004. Besides, the log2 fold change in assay [4] is inactive: -0.035; in assay [5] it was inactive: 0; with saracatinib, inactive: 0.066; in the assay with sotrastaurin it was inactive: -0.025.
For SMUG1 (UniProt Q53HV7), the log2 fold change was inactive: 0.051 in the assay with vemurafenib; inactive: 0.073 in [1]; inactive: 0.038 in the assay with barasertib; inactive: 0.086 in assay [2]; inactive: 0.008 in the assay with volasertib; inactive: -0.002 in assay [3]. Moreover, the log2 fold change was inactive: -0.051 in assay [4], inactive: -0.042 in [5] and inactive: 0 with saracatinib.
For SMS (UniProt P52788), the log2 fold change in the assay with vemurafenib is inactive: -0.023; in assay [1], inactive: -0.01; with barasertib, inactive: -0.034; in assay [2], inactive: -0.016; in the assay with volasertib, inactive: 0.022; in [3], inactive: 0.029. The log2 fold change was inactive: 0.057 in assay [4], inactive: -0.005 in [5], inactive: -0.004 with saracatinib and inactive: -0.006 in the assay with sotrastaurin.
Consider SNRPA1 (UniProt P09661), for which the log2 fold change with vemurafenib is inactive: 0.012; in assay [1] it was inactive: 0.008; with barasertib, inactive: -0.005; in [2], inactive: 0.02; with volasertib, inactive: 0.015; in [3], inactive: -0.007. Further, the log2 fold change is inactive: -0.029 in [4], inactive: 0.019 in assay [5], inactive: 0.023 with saracatinib and inactive: -0.01 with sotrastaurin.
Consider SMIM12 (UniProt Q96EX1), for which the log2 fold change in the assay with vemurafenib is inactive: 0.023; in [1], inactive: 0.024; with barasertib, inactive: 0.106; in assay [2] it was inactive: 0.129; in the assay with volasertib, inactive: -0.004; in assay [3], inactive: 0.08. Also, the log2 fold change in [4] was active: 0.355; in assay [5], inactive: -0.269; with saracatinib, inactive: 0.041; with sotrastaurin, inactive: 0.025.
Turning to SNF8 (UniProt Q96H20), the log2 fold change is inactive: -0.015 with vemurafenib; inactive: -0.006 in [1]; inactive: 0.017 with barasertib; inactive: -0.018 in [2]; inactive: -0.006 with volasertib; inactive: -0.026 in [3]. Further, the log2 fold change in assay [4] was inactive: 0.022; in [5], inactive: -0.04; in the assay with saracatinib, inactive: 0.015; with sotrastaurin, inactive: 0.032.
Take SPAG9 (UniProt O60271): the log2 fold change with vemurafenib is inactive: 0.008; in [1], inactive: 0.016; in the assay with barasertib, inactive: -0.016; in [2], inactive: 0.049; with volasertib, inactive: 0.027; in assay [3] it was inactive: -0.016. The log2 fold change in assay [4] is inactive: -0.043; in assay [5], inactive: 0.047; in the assay with saracatinib, inactive: -0.029; with sotrastaurin it was inactive: 0.001.
In the case of SOD1 (UniProt P00441), the log2 fold change with vemurafenib was inactive: -0.011; in [1], inactive: -0.019; in the assay with barasertib it was inactive: 0.047; in assay [2], inactive: 0.021; with volasertib, inactive: 0.096; in [3], inactive: -0.01. In addition, the log2 fold change in assay [4] is inactive: 0.09; in [5], inactive: 0.05; in the assay with saracatinib it was inactive: -0.055; with sotrastaurin, inactive: 0.134.
With SMYD5 (UniProt Q6GMV2), the log2 fold change in the assay with vemurafenib was inactive: 0.085; in assay [1], inactive: 0.012; with barasertib, inactive: -0.015; in assay [2], inactive: -0.033; with volasertib it was inactive: 0.002; in assay [3] it was inactive: -0.009. For the same target, the log2 fold change in assay [4] was inactive: -0.017; in [5] it was inactive: -0.016; in the assay with saracatinib, inactive: 0.038; in the assay with sotrastaurin, inactive: -0.003.
SNRPD1 (UniProt P62314): the log2 fold change was inactive: -0.011 with vemurafenib; inactive: 0.005 in assay [1]; inactive: -0.012 with barasertib; inactive: 0.079 in [2]; inactive: 0.022 with volasertib; inactive: 0.008 in assay [3]. The log2 fold change in [4] is inactive: -0.097; in assay [5], inactive: 0.053; in the assay with saracatinib, inactive: 0.01; in the assay with sotrastaurin it was inactive: -0.002.
With SNRPA (UniProt P09012), the log2 fold change was inactive: 0.01 with vemurafenib; inactive: -0.019 in assay [1]; inactive: -0.015 in the assay with barasertib; inactive: 0.044 in assay [2]; inactive: 0.029 in the assay with volasertib; inactive: -0.005 in assay [3]. In addition, the log2 fold change in assay [4] is inactive: -0.06; in [5], inactive: 0.027; in the assay with saracatinib it was inactive: 0.017; in the assay with sotrastaurin, inactive: -0.002.
Take SMARCB1 (UniProt Q12824): the log2 fold change with vemurafenib was inactive: 0.031; in assay [1] it was inactive: 0.037; in the assay with barasertib, inactive: -0.003; in [2], inactive: -0.065; in the assay with volasertib it was inactive: -0.042; in [3], inactive: -0.021. Also, the log2 fold change in assay [4] is inactive: -0.083; in assay [5] it was inactive: -0.015; with saracatinib it was inactive: 0.005; in the assay with sotrastaurin, inactive: 0.032.
For the target SOS1 (UniProt Q07889), the log2 fold change was inactive: -0.002 in the assay with vemurafenib; inactive: 0.02 in [1]; inactive: 0.044 in the assay with barasertib; inactive: -0.104 in [2]; inactive: -0.078 in the assay with volasertib; inactive: 0.058 in [3]. The log2 fold change in assay [4] was inactive: -0.074; in [5] it was inactive: -0.029; with saracatinib it was inactive: 0.008; with sotrastaurin, inactive: -0.003.
In the case of SNX2 (UniProt O60749), the log2 fold change in the assay with vemurafenib is inactive: -0.021; in [1] it was inactive: -0.005; in the assay with barasertib, inactive: 0.015; in assay [2], inactive: -0.023; in the assay with volasertib, inactive: -0.029; in assay [3], inactive: 0.025. Besides, the log2 fold change is inactive: 0.001 in assay [4], inactive: -0.088 in assay [5], inactive: 0.009 with saracatinib and inactive: -0.01 with sotrastaurin.
In the case of SNRPD3 (UniProt P62318), the log2 fold change was inactive: 0.022 with vemurafenib; inactive: -0.012 in assay [1]; inactive: -0.006 with barasertib; inactive: -0.049 in [2]; inactive: -0.004 with volasertib; inactive: 0.052 in [3]. For the same target, the log2 fold change in assay [4] was inactive: -0.254; in assay [5] it was inactive: 0.135; with saracatinib it was inactive: 0.046; with sotrastaurin, inactive: 0.024.
